The values below come from paper doi:10.1101/2021.02.23.432418.

No constants are given. Whether binding was seen depends on the method and setting. In cells and extracts the contact can be indirect. Sequences can lack the tags named with a protein.

The test addresses T1, porcine Gasdermin D residues 194-488 (pGSDMD-194-488) (porcine (cDNA of IPEC-J2 cells)) (UniProt F1SEV7).
T1 sequence: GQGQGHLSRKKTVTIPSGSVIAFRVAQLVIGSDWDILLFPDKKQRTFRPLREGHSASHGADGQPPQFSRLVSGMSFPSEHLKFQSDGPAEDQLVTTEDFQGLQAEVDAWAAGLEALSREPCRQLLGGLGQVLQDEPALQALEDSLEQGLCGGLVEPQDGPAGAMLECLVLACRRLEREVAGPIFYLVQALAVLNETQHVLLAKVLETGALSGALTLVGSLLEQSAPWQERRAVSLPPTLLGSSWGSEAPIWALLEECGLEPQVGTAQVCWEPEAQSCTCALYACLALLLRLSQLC
Briefly: co-IP.

B1: porcine caspase-1 (HA-caspase-1) (enzyme, UniProt Q9N2I1 1-404)
chain: MADKVLKEKRRLFVRSVAMGTINGLLDELLETRVLNQEEVEIVRGENATVMDKARALIDSVIRKGPQACQICINHICGDDPHLAGVLELSTGSQSGKCLTVQESQAVVPPFPAPQTVQDNPVKPASSEPRGSLKLCPPDIAQRLWKEKSAEIYPIMGKSIRTRLALIICNTEFENLPRRDGADVDIRDMKILLEDLGYSVDVRENLTASDMAIELKAFAARPEHKSSDSTFLVLMSHGIQAGICGKKYSEEVPDVLEVNTVFQILNTLNCPSLKDKPKVIIIQACRGEKQGVVWIKDSVGPSGNSSLLAAEDFEYDAIKKAHIEKDFIAFCSSTPDNVSWRHPLLGSLFIIKLIKILQEHAWSCGLEEIFRKVRFSFELADGRAQMPTAERVTLTRSFYLFPGH
In the case of B1, the binding result is on record as “no binding”.
